In US8785682B2, “Tetranor PGDM: a biomarker of PGD2 synthesis in vivo” (The Trustees of the University of Pennsylvania, priority 2007, dated 2014):

Tested on: biosynthesis of PGD2
Assay: Urinary tetranor PGDM in PGD synthase knockout mice
Format: in vivo, mouse
Conditions: mean

O=C(O)CCCCC(=O)CC[C@H]1C(=O)C[C@H](O)[C@@H]1CCC(=O)O [tetranor PGDM, 11,15-dioxo-9α-hydroxy-2,3,4,5-tetranor-prostan-1,20-dioic acid]
urinary tetranor PGDM, deletion of H-PGDS (H-PGDS knockout mice, 24 h urine, P<0.0001 vs wild type): 1.0 ng/mg creatinine | urinary tetranor PGDM, deletion of L-PGDS (L-PGDS knockout mice, 24 h urine, p<0.05 vs wild type): 5.1 ng/mg creatinine | urinary tetranor PGDM, wild type mice (wild type C57/BL6, 24 h urine): 8.6 ng/mg creatinine
